# Library screen at single concentrations

Amino acid sequences for entries named in this document (tags omitted). Residues count along the entry.
UniProt Q4DA54, 1-478: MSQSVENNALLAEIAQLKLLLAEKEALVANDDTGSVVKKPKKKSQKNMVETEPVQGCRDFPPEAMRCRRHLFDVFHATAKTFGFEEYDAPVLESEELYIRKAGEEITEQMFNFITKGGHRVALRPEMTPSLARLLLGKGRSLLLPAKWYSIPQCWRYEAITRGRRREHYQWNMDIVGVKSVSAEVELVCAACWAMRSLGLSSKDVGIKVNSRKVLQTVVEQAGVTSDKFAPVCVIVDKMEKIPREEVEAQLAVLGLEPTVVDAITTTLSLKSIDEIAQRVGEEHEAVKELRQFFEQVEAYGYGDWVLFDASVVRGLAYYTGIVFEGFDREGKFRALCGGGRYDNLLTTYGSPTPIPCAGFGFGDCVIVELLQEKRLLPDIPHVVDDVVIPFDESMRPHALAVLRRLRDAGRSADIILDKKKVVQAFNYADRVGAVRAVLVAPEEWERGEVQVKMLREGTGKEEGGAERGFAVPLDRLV
UniProt P9WNZ1, whole entry: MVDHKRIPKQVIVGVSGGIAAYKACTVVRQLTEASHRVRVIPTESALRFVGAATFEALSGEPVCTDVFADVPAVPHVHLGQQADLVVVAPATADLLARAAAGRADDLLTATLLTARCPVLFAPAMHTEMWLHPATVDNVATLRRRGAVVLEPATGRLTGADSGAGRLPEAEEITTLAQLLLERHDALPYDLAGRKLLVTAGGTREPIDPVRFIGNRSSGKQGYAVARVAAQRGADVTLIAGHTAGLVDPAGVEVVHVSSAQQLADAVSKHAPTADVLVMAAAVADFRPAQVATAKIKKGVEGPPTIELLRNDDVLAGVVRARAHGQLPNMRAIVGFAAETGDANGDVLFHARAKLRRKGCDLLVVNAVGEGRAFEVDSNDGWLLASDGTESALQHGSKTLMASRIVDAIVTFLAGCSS
UniProt A4I591, 1-473: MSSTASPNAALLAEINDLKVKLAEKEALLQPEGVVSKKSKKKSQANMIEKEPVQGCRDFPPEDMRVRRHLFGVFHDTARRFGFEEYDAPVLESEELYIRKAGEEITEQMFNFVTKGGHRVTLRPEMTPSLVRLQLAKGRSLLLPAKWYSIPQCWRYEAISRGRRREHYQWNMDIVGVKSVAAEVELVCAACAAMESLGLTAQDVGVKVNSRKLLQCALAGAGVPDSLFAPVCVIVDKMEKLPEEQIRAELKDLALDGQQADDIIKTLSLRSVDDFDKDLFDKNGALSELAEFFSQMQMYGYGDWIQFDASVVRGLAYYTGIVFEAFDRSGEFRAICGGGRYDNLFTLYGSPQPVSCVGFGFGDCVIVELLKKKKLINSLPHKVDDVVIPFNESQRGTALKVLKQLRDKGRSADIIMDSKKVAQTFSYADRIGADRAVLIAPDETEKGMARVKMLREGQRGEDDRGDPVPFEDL

Source: ChEMBL document CHEMBL3988442, “University of Dundee, Small-Polar-MMV Screening Library” (2021).

TcHisRS: 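Enzyme assay of histidyl-tRNA synthetase; the read-out is not stated. Target: Histidine-tRNA ligase, Trypanosoma cruzi CL Brener (UniProt Q4DA54). Compounds at 30 µM. The record gives no direction; compounds that gave an IC50 in retests scored well above the rest, so higher reads as stronger inhibition. About 69,000 compounds were tested under these conditions; 0.045% (about 31) showed 50% or more at least once.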
CoaBC: 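Enzyme assay of CoaBC with a phosphate dye (Biomol Green) read at 650 nm. Target: Coenzyme A biosynthesis protein CoaBC, Mycobacterium tuberculosis (UniProt P9WNZ1). Tested at 30 µM. Higher reads as stronger inhibition, judged from the few compounds that gave an IC50. Most strong results did not repeat in a second test. About 67,000 compounds were tested under these conditions; 0.06% (about 40) showed 50% or more at least once.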
LiHisRS: 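Histidine-tRNA ligase, Leishmania infantum (UniProt A4I591). Enzyme assay of histidyl-tRNA synthetase; the read-out is not stated. Concentration: 30 µM. Direction is inferred from retests: higher values go with stronger inhibition. The assay is labelled LdHisRS but filed under L. infantum. Size under these conditions: about 69,000 compounds, about 410 of them at 50% or above in at least one test.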

Each number is a percent effect as filed.
How 0% and 100% were set is not recorded. Most values in the screen are low, and negative values occur.
Compounds were drawn at random from those tested, without regard to their results.
A dash means the value is not listed here; it may have been measured.

compound,TcHisRS,CoaBC,LiHisRS
O=C1NCCO[C@H]2CN(C(=O)CC3Cc4ccccc4C3)CC[C@@H]12,5.155%,3.695%,18%
COc1ccc2nc(C[C@@H]3C[C@@H](C(C)C)[C@H](CN)C=C3C)[nH]c2n1,10.89%,-16.03%,27.78%
Cc1cnn(CC2CCCN2CC(=O)N(C)CCC#N)c1 (stereo not drawn),1.667%,-6.183%,-1.923%
COc1ncccc1CNC(=O)c1ccco1,3.39%,1.828%,12.07%
Cn1ccc(CN2CCC(NC(=O)NC3CCCCC3)CC2)cc1=O,4.58%,1.813%,-4.255%
COc1cccc(NC(=O)c2cc3c([nH]c2=O)CCCC3=O)c1,2.062%,-1.119%,3.448%
Cc1cnc(CN2CCN(C(C)c3nc(C4CC4)no3)CC2)cn1 (stereo not drawn),6.897%,-9.234%,18.42%
CN1CCc2c(sc3c2C(=O)NC(/C=C/c2ccccc2)N3)C1 (stereo not drawn),21.89%,-2.895%,17.93%
Cn1cccc1C(=O)N1CCC2(CC1)c1nc[nH]c1CCN2S(C)(=O)=O,3.061%,-2.061%,9.677%
CCc1nc(CN(C)C2CCN(CCNS(=O)(=O)CC)C2)no1 (stereo not drawn),6.415%,-1.173%,4.054%
CS(=O)(=O)c1ccc(C(=O)N2CCCC(n3cccn3)C2)cc1 (stereo not drawn),6.158%,0.5263%,15.74%
Cc1cc(N2CCC(NCCOc3ccccc3)CC2)nc(C)n1,12.71%,-15.56%,15.49%
CCc1nc(CC(=O)N2CCn3c(C)nnc3C2)cs1,8.235%,7.673%,20.18%
Cc1nn(CCC(=O)NC2CCCOC2)c(C)c1C (stereo not drawn),5.085%,-3.632%,9.79%
CC(C)NC(=O)N1CCC2(CC1)CC[C@@]1(C(=O)N(C)C)CN(C)C[C@@H]21,1.031%,1.97%,10%
COCC(=O)N(CCC(=O)OC)CC1CCCO1 (stereo not drawn),1.961%,3.19%,1.667%
Cc1nn(C)c(C)c1C1CCCN1C(=O)c1cnccn1 (stereo not drawn),-1.69%,7.761%,9.565%
OCCCN1CCc2onc(C(c3ccccc3)c3ccccc3)c2C1,2.674%,14.35%,17.28%
CN(Cc1cccnc1)c1nccc(N2CCN[C@H]3CS(=O)(=O)C[C@H]32)n1,3.247%,0.6046%,12.9%
CNC(=O)c1c(C)cccc1NCc1nnc(C2CC2)o1,3.448%,3.797%,11.69%
CC(C)c1noc(C(C)N2CCC(c3nc4ccccc4o3)CC2)n1 (stereo not drawn),2.381%,0.1229%,10.85%
Cn1cnc(S(=O)(=O)N2CCCC2c2cnccn2)c1 (stereo not drawn),1.521%,1.854%,10.34%
COc1ccc(C2(C(=O)NC3CCc4nccn4C3)CCCC2)cc1 (stereo not drawn),13.33%,-9.504%,20.54%
Cc1cc(CN2CCc3cncnc3C2)on1,-1.657%,-0.4464%,23.96%
CC(c1ccc(-n2cncn2)cc1)N(C)Cc1ccccn1 (stereo not drawn),3.879%,1.648%,11.39%
CCn1c(NCc2ccco2)nc2c(C)nn(C)c2c1=O,-4.918%,6.595%,11.65%
COCCN1CCO[C@@H]2CN(C(=O)Cc3cccc(F)c3)CC[C@@H]2C1,8.046%,-3.074%,20%
CC(C)CS(=O)(=O)N1C[C@H]2C[C@H](C(=O)Nc3cccnc3)[C@@H](C1)O2,6.098%,4.01%,10.26%
CC(C)n1nc(CN2CCCCC2)c2c1CN(C(=O)c1ccno1)C2,6.63%,1.238%,6.306%
Cc1ccsc1CN1CCC(c2nnc(Cn3cccn3)n2C)CC1,-1.339%,4.082%,13.58%
COc1ccccc1C(O)Cn1cc(C(=O)NCc2ccco2)nn1 (stereo not drawn),4.124%,-8.245%,17.39%
CN1CCN(C2CCN(c3cnc4ccccc4n3)CC2)C1=O,15.97%,2.016%,12.28%
Cc1cnn(CC2CCCN2C(=O)c2cc(Cl)ccc2F)c1 (stereo not drawn),4.943%,0.527%,-21.88%
Fc1ccc(CN2C[C@@H]3OCCN(CC4CCCO4)[C@@H]3C2)cc1 (stereo partly drawn),10.92%,-13.59%,15.6%
O=C1CCCN1Cc1nnc2n1CCCN(C(=O)c1ccco1)C2,4.444%,-1.22%,16.98%
CCCC(C)C(=O)NCc1cn2cc(Br)ccc2n1 (stereo not drawn),1.087%,-5.803%,25.71%
O=C(NCc1cccs1)c1nc2c(o1)CN(C(=O)c1cccnc1)C2,4.95%,-2.773%,-1.37%
CCN1CC[C@@]2(C(=O)N3CCOCC3)CCN(S(=O)(=O)CC)CC[C@@H]12,7.767%,5.852%,19.42%
CCOCC1CN(C(=O)Cc2ccccn2)Cc2cnn(CC)c21 (stereo not drawn),9.244%,1.42%,-4.587%
Cc1nc(N2CCN(C(=O)c3ccncc3)CC2)c2c(n1)c(C)nn2C,2.609%,1.386%,1.724%
CN(C)c1cc(C(F)(F)F)cc(-c2ccc(C(=O)O)cc2)n1,5.208%,3.682%,4.167%
CC(C)c1nccn1C1CCCN(C(=O)c2ccsc2)C1 (stereo not drawn),1.681%,-11.88%,11.57%
CCc1cnc(N2C[C@H]3C[C@H](C(=O)N4CCOCC4)[C@@H](C2)O3)nc1,7.538%,2.104%,13.86%
CC1CCN(C)c2ccccc2N1C(=O)c1ccn(C)c(=O)c1 (stereo not drawn),10.53%,-,10.83%
COc1cc(C2SC(C)=Nc3c2c(=O)[nH]n3C2CCCC2)ccc1O (stereo not drawn),8.911%,4.237%,22.83%
CC(C)OCCC(=O)NCC(O)c1c(Cl)cccc1Cl (stereo not drawn),0.8772%,9.595%,8.929%
O=c1n(Cc2cccc(F)c2)nc2ncccn12,11%,0.7264%,19.57%
Cc1cc(CNc2ccccc2Cl)no1,3.226%,2.368%,12.04%
CC(CCc1ccccc1)CC(=O)NC1CCN(CC(N)=O)CC1 (stereo not drawn),7.143%,2.808%,11.43%
O=C(c1ccoc1)N1CCOC2(COCCN(CC3CC3)C2)C1 (stereo not drawn),12.85%,-0.6061%,25%
O=C(c1cc(CC2(NCc3ccccc3)COC2)no1)N1CCCCC1,5.941%,-6.998%,22.22%
O=C(c1cccs1)N1CC[C@H]2C[C@@H](c3nnc(C4CC4)o3)O[C@@H]2C1,-3.175%,0.4938%,0.9091%
COc1ccc(CC(=O)NCC(O)c2sccc2C)cc1OC (stereo not drawn),8.485%,-2.043%,12.99%
Cc1cc(NC(=O)CN2CCC(N3CCNC3=O)CC2)on1,0.8547%,-5.898%,5.128%
O=C(C1CCOC1)N1CCN(CC2CC2)c2ccccc21 (stereo not drawn),10.05%,-0.3236%,17.65%
N#Cc1ccc(N2CCCC3(CCN(c4cncnc4)C3=O)C2)nc1 (stereo not drawn),5.528%,1.856%,3.96%
CN(CC1(CO)CCC1)C(=O)c1cc(COc2ccccc2F)[nH]n1,9.091%,4.377%,11.7%
O=C(O)c1cccc(N2C[C@H](NC(=O)C3CCOCC3)[C@@H](C3CC3)C2)n1,-2.703%,3.182%,-8.219%
O=C(c1ccccn1)N1CCC2(CC1)C(=O)Nc1ccccc12,4.348%,7.009%,22.37%
c1cc(-c2noc([C@@H]3CCCN3CC3CC3)n2)cc(N2CCCC2)n1,-1.493%,15.52%,29.73%
CC(Nc1nc2c(cnn2C)c(=O)[nH]1)c1ccc2c(c1)CCCC2 (stereo not drawn),5.978%,-10.74%,10.67%
Cc1cnc(-c2nc(C3CCCN(Cc4cccs4)C3)no2)cn1 (stereo not drawn),8.046%,4.545%,7.194%
CC1(C)CC(N(Cc2ccncc2)Cc2cccnc2)CC(C)(C)N1,8.791%,1.214%,21.74%
Cc1ncsc1CNc1ccn(Cc2ccccc2)n1,6.897%,0.9823%,14.91%
COc1c(C)cnc(CN2CCOC(Cn3nc(C)nc3C)C2)c1C (stereo not drawn),6.015%,-5.656%,12.36%
CCc1nc(C2CCCN2C(=O)CCc2cscn2)no1 (stereo not drawn),0.578%,1.405%,0.8929%
Cc1ccc(CN2C[C@H](N(C)Cc3cncnc3)[C@H]3OCCC[C@H]32)o1,7.362%,-,15.38%
CC(C)(C)OC(=O)N1CCCN1C(=O)c1cccc2cc[nH]c12,4.39%,-1.38%,-8.475%
CSc1cccc(NC(C)C(=O)Nc2nccs2)c1 (stereo not drawn),3.627%,-17.71%,1.124%
Cc1nc(-c2ccc(S(=O)(=O)N3CCSC3)cc2)co1,0%,1.485%,10%
CCC(=O)N1CCc2[nH]cnc2C12CCN(C(=O)CCS(C)(=O)=O)CC2,-0.813%,12.24%,16.35%
COCCn1ccc2c(cnc3nc(SC)nn32)c1=O,11%,-0.9685%,21.74%
c1ccc2c(c1)CC(N1CCCN(Cc3cccc4nonc34)CC1)C2,10.78%,-0.2439%,12.8%
O=C(CC1CC1)N1CCN(Cc2ccncc2)c2ncccc2C1,-0.9524%,-3.576%,4.167%

Some entries from above, unchanged:

compound,TcHisRS,CoaBC,LiHisRS
CNC(=O)c1c(C)cccc1NCc1nnc(C2CC2)o1,3.448%,3.797%,11.69%
Cc1cc(N2CCC(NCCOc3ccccc3)CC2)nc(C)n1,12.71%,-15.56%,15.49%
Cc1ncsc1CNc1ccn(Cc2ccccc2)n1,6.897%,0.9823%,14.91%
Cc1nc(-c2ccc(S(=O)(=O)N3CCSC3)cc2)co1,0%,1.485%,10%
CC(Nc1nc2c(cnn2C)c(=O)[nH]1)c1ccc2c(c1)CCCC2 (stereo not drawn),5.978%,-10.74%,10.67%
Cc1cnn(CC2CCCN2C(=O)c2cc(Cl)ccc2F)c1 (stereo not drawn),4.943%,0.527%,-21.88%
CN(C)c1cc(C(F)(F)F)cc(-c2ccc(C(=O)O)cc2)n1,5.208%,3.682%,4.167%
CN(CC1(CO)CCC1)C(=O)c1cc(COc2ccccc2F)[nH]n1,9.091%,4.377%,11.7%